PubChem BioAssay AID686938 | Drosophila RNAi Screening Center | 2013
The screen tested about 23,000 reagents; shown is a random part of those that have a named target and a result. Of all reagents, 75 (0.33%) got an active call. 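Raw plate signals without normalisation; calls rest on plate z-scores that were not deposited; ratio present for only 364 wells.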 Unmarked entries are inactive. The numbers tell different reagents against one gene apart. Not given: the dose of the treatment.

- Assay: 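Fly genes required for calcium entry once internal stores are emptied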 (primary screen)
- System: Drosophila S2R+ cells
- Knock-down reagent: long dsRNA against Drosophila genes, about 0.25 µg dsRNA per well, roughly 10,000 cells
- Duration: 5 days of knock-down before the calcium assay
- Treatment: thapsigargin (SERCA pump blocker) to empty calcium stores; entry signal taken 4 min after adding it
- Read-out: 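Per-well fluo-4 fluorescence in two replicates, unnormalised, measured in resting cells and 4 min after store depletion by the SERCA blocker thapsigargin; ratio of the two present in few wells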
- Direction: calcium entry signal: higher = stronger calcium signal after store depletion; entry to resting ratio: higher = more calcium entry relative to resting level; resting calcium signal: higher = higher resting calcium signal
- Units: calcium entry signal in fluorescence units; resting calcium signal in fluorescence units
- Active means: 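Called when the plate z-score of the entry-to-rest ratio, mean of duplicates, falls below −3; wells with low overall dye signal (Fmax z below −2) or more than five off-targets excluded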
- Calls: active = strongly reduced calcium entry; inactive = no strong reduction

Against CG14507 the deposit lists calcium entry signal, replicate 1 = 3.20e7; calcium entry signal, replicate 2 = 4.53e7; resting calcium signal, replicate 1 = 1.70e7; resting calcium signal, replicate 2 = 2.10e7. For CG11227, the entry reads calcium entry signal, replicate 1 = 5.07e7; calcium entry signal, replicate 2 = 5.78e7; resting calcium signal, replicate 1 = 2.61e7; resting calcium signal, replicate 2 = 2.42e7. CG18754 gave calcium entry signal, replicate 1 = 3.63e7; calcium entry signal, replicate 2 = 2.57e7; resting calcium signal, replicate 1 = 1.47e7; resting calcium signal, replicate 2 = 1.05e7. Depletion of okr (okra) resulted in: calcium entry signal, replicate 1 = 3.68e7; resting calcium signal, replicate 1 = 2.23e7. Knock-down of CG32305 gave: calcium entry signal, replicate 1 = 3.24e7; calcium entry signal, replicate 2 = 4.42e7; resting calcium signal, replicate 1 = 1.73e7; resting calcium signal, replicate 2 = 1.98e7. After knock-down of Cp18 (Chorion protein 18), the screen gave calcium entry signal, replicate 1 = 3.15e7; calcium entry signal, replicate 2 = 4.93e7; resting calcium signal, replicate 1 = 1.56e7; resting calcium signal, replicate 2 = 2.31e7.

Against CG31207 the deposit lists calcium entry signal, replicate 1 = 2.44e7; calcium entry signal, replicate 2 = 3.76e7; resting calcium signal, replicate 1 = 1.19e7; resting calcium signal, replicate 2 = 2.11e7. After knock-down of CG3251, the record shows calcium entry signal, replicate 1 = 2.37e7; calcium entry signal, replicate 2 = 2.51e7; resting calcium signal, replicate 1 = 1.21e7; resting calcium signal, replicate 2 = 1.15e7. Depletion of Ythdc1 (YTH domain containing 1) came out at: calcium entry signal, replicate 1 = 4.65e7; calcium entry signal, replicate 2 = 3.51e7; resting calcium signal, replicate 1 = 2.98e7; resting calcium signal, replicate 2 = 1.62e7. After knock-down of CG7702, the screen gave calcium entry signal, replicate 1 = 3.43e7; calcium entry signal, replicate 2 = 2.34e7; resting calcium signal, replicate 1 = 1.51e7; resting calcium signal, replicate 2 = 1.02e7. Ugt37B1 (UDP-glycosyltransferase family 37 member B1) showed calcium entry signal, replicate 1 = 3.70e7; calcium entry signal, replicate 2 = 3.65e7; resting calcium signal, replicate 1 = 1.96e7; resting calcium signal, replicate 2 = 1.79e7. Against Ugt316A1 (UDP-glycosyltransferase family 316 member A1) the deposit lists calcium entry signal, replicate 1 = 2.52e7; calcium entry signal, replicate 2 = 4.03e7; resting calcium signal, replicate 1 = 1.24e7; resting calcium signal, replicate 2 = 1.67e7.

Ordered by “resting calcium signal, replicate 1” (low to high): some entries from above.
Cp18 (Chorion protein 18): calcium entry signal, replicate 1 = 3.15e7; calcium entry signal, replicate 2 = 4.93e7; resting calcium signal, replicate 1 = 1.56e7; resting calcium signal, replicate 2 = 2.31e7
CG32305: calcium entry signal, replicate 1 = 3.24e7; calcium entry signal, replicate 2 = 4.42e7; resting calcium signal, replicate 1 = 1.73e7; resting calcium signal, replicate 2 = 1.98e7

Next entries follow:
For Cul6 (Cullin 6), the values are calcium entry signal, replicate 1 = 5.10e7; calcium entry signal, replicate 2 = 3.07e7; resting calcium signal, replicate 1 = 3.41e7; resting calcium signal, replicate 2 = 1.50e7. With knock-down of Iris, the screen gave calcium entry signal, replicate 1 = 4.52e7; resting calcium signal, replicate 1 = 2.30e7. Knock-down of ZnT49B (Zinc transporter 49B) gave: calcium entry signal, replicate 1 = 3.60e7; calcium entry signal, replicate 2 = 4.13e7; resting calcium signal, replicate 1 = 1.94e7; resting calcium signal, replicate 2 = 1.80e7. CG13458 scored calcium entry signal, replicate 1 = 3.73e7; calcium entry signal, replicate 2 = 4.27e7; resting calcium signal, replicate 1 = 1.69e7; resting calcium signal, replicate 2 = 2.77e7. For CG14419, the entry reads calcium entry signal, replicate 1 = 6.64e7; calcium entry signal, replicate 2 = 5.80e7; entry to resting ratio 2.2; resting calcium signal, replicate 1 = 3.01e7; resting calcium signal, replicate 2 = 2.30e7. For beat-Ic (beaten path Ic) #1, the values are calcium entry signal, replicate 1 = 3.67e7; calcium entry signal, replicate 2 = 4.19e7; resting calcium signal, replicate 1 = 2.05e7; resting calcium signal, replicate 2 = 2.00e7.

After knock-down of beat-Ic (beaten path Ic) #2, the record shows calcium entry signal, replicate 1 = 4.40e7; calcium entry signal, replicate 2 = 3.95e7; resting calcium signal, replicate 1 = 1.93e7; resting calcium signal, replicate 2 = 1.91e7. After knock-down of CG15255, the screen gave calcium entry signal, replicate 1 = 3.26e7; calcium entry signal, replicate 2 = 2.24e7; resting calcium signal, replicate 1 = 1.68e7; resting calcium signal, replicate 2 = 1.26e7. After knock-down of gny (garnysstan) the results were calcium entry signal, replicate 1 = 4.78e7; resting calcium signal, replicate 1 = 2.34e7.
